The results in this text go back to paper PMC2565678.

Protein sequences, listed by entry. Tags and fused reporters are not part of them.
UniProt Q9NQB0: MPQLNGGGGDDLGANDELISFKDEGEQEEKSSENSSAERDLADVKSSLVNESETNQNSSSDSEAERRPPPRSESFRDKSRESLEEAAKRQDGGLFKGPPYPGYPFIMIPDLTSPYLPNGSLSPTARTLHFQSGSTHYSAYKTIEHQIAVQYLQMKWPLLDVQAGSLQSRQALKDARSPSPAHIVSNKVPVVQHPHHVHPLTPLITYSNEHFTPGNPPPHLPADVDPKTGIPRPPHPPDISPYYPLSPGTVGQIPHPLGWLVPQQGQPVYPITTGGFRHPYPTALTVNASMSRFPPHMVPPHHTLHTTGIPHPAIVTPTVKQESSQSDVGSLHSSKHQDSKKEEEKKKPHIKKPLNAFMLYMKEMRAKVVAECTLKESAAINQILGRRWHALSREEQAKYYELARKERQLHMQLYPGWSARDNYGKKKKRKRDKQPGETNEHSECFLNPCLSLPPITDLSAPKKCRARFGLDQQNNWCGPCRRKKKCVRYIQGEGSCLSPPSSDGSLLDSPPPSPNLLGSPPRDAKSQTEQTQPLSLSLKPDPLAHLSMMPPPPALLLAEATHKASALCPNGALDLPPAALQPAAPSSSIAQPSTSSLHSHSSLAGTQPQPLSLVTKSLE
UniProt P35222: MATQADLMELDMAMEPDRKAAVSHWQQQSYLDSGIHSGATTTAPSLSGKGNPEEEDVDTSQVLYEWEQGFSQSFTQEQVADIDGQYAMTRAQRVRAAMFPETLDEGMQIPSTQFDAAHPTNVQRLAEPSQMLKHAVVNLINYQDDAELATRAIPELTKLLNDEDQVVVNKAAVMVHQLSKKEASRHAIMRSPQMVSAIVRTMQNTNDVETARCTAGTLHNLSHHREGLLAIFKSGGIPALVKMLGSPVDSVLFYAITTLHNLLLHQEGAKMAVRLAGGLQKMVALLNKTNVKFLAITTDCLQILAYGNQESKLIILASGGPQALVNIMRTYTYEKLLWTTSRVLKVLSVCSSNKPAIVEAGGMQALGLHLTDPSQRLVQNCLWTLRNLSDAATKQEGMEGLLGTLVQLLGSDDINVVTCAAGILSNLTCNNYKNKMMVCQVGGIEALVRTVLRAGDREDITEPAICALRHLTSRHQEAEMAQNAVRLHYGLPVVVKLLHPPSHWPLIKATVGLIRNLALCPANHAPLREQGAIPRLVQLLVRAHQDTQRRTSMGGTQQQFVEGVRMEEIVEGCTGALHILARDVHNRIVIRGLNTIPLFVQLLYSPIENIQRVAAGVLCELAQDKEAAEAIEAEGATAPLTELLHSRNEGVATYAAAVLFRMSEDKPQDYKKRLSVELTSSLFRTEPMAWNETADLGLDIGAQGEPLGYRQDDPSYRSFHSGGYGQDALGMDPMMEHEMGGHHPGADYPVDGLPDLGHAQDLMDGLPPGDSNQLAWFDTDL
UniProt Q13009: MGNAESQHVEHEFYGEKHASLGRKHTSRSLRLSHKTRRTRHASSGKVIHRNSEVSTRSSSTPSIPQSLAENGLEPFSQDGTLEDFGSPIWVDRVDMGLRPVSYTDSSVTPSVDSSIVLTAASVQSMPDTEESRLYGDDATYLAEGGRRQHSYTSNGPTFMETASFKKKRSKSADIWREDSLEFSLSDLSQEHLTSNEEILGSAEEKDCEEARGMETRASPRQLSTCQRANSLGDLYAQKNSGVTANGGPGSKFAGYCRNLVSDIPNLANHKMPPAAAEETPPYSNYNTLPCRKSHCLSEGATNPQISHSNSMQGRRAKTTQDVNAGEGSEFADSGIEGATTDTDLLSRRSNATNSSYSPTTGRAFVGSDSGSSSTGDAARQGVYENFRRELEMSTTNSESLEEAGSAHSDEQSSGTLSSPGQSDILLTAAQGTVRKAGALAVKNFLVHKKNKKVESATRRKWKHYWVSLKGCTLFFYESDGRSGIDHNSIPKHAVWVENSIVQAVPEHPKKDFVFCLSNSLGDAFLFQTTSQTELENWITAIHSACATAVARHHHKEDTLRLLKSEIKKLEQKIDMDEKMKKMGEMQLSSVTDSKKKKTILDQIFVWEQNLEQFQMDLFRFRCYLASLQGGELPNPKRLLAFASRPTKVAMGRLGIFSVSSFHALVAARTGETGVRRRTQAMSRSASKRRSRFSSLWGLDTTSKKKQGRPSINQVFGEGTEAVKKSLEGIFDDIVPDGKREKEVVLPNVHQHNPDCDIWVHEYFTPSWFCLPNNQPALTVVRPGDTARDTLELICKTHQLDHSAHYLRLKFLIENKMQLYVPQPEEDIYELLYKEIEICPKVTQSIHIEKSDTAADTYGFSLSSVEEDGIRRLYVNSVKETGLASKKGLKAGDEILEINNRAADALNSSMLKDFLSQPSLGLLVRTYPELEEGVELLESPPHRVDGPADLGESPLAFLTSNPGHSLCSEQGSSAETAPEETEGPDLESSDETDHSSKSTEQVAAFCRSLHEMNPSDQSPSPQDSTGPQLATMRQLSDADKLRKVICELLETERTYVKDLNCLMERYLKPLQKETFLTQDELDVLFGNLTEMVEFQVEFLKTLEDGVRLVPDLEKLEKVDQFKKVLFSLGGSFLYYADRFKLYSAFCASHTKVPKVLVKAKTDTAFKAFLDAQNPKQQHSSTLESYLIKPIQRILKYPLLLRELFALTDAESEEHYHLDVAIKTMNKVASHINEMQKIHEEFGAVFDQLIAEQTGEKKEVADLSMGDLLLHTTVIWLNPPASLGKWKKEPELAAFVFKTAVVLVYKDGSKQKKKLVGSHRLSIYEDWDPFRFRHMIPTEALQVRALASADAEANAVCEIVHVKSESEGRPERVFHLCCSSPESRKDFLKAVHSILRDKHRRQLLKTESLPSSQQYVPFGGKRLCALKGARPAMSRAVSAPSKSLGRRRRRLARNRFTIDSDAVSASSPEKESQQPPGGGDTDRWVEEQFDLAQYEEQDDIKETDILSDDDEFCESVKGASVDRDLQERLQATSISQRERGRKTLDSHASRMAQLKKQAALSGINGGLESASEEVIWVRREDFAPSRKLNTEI

Results are given in words; binding and its absence hold for the method and conditions named. Binding seen in cells or lysates may run through a third protein. Some results given as binding are weak or reduced against the parent protein; the word gives no strength.

Assay in all cases: co-IP; whole cell lysates (500 μg) of 293T cells treated with L-CM or Wnt3a-CM for 18 hours, endogenous proteins; IP with 3 μg Tiam1, β-catenin or TCF-4 antibody, immunoblot
In general terms: A western blot detects proteins with antibodies after separation by electrophoresis.

Test [1] deals with endogenous TCF-4 of 293T cells (human (endogenous in 293T)) (UniProt Q9NQB0).
Test [2] deals with endogenous wild-type β-catenin of 293T cells (human (endogenous in 293T)) (UniProt P35222).
The target of test [3] is endogenous Tiam1 of 293T cells (human (endogenous in 293T)) (UniProt Q13009).

With “endogenous Tiam1 of 293T cells (from UniProt Q13009 1-1591)”, the binding result in test [1] and in test [2] was “binds” throughout. Regarding “endogenous wild-type β-catenin of 293T cells (from UniProt P35222 1-781)”, the binding result in test [3] is “binds”.
